In PubChem BioAssay AID720540 (National Center for Advancing Translational Sciences (NCATS), 2013):
About 460 (35%) of roughly 1,300 compounds were called active. The shares of active, inactive and inconclusive entries below differ from those in the screen. The call rests on the fitted dose curve; in most records, active means well fitted inhibition curve with a large enough effect; inconclusive means small, poorly fitted or top-dose-only effect; inactive means flat fitted curve, though single readings scatter. Potencies of inconclusive entries are doubtful fits and often do not repeat.

Chains of the proteins cited; added tags and fusions are not shown. Lines headed by an entry give the natural chain unless they say otherwise; changes in a name come on top.
UniProt O00167: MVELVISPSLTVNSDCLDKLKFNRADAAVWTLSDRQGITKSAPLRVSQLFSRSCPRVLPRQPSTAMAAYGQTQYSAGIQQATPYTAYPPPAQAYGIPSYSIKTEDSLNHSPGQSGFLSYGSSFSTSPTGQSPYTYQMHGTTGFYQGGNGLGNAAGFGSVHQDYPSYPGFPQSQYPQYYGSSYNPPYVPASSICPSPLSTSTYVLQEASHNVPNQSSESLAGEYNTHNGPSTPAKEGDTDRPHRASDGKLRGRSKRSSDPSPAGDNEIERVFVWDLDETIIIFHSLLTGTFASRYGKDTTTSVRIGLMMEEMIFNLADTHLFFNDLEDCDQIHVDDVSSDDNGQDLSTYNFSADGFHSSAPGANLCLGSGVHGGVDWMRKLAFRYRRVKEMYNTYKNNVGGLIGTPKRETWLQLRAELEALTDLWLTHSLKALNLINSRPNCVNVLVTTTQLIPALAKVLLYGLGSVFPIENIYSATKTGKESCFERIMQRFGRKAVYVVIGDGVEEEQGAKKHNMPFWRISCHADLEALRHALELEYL

Biological target: Protein phosphatase EYA2 (Homo sapiens) (UniProt O00167)
Test: qHTS for Inhibitors of the Phosphatase Activity of Eya2: Confirmatory Assay for Cherry-picked Compounds; further: nearly all actives have a fitted effect of over 65% in size;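 on activity change, negative = inhibition: 0% = DMSO wells and -100% = EGTA control giving full inhibition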
Details: purified EYA2 phosphatase activity, qHTS confirmation; activity change, negative = inhibition: at 46.1 µM (top of the series)
Source text: The Eya protein family is an essential co-activator of the Six1 transcription factor. Six1 is a developmental gene that is abnormally re-expressed in a large percentage of breast cancers. This over-expression plays a causal role in the initiation and metastatic development of breast cancers. The Eya family of protein is also found to contain a unique HAD phosphatase domain with protein tyrosine phosphatase activity which can potentially play a role in Six1-mediated breast tumorigenesis. Recently, Eya2 is found to dephosphorylate the histone variant H2AX and direct cells towards DNA repair instead of apoptosis in the event of DNA damage.
A 1536 well format, fluorescence based qHTS assay was developed and used to target the phosphatase activity of Eya2 (AID 488837). Inhibitors found against Eya2 could serve as potential therapeutic tools to inhibit Six1-mediated breast tumorigenesis and to increase the efficiency of radiation and certain chemo therapy. This assay assessed the activity of the primary screen cherry-picked compounds against Eya2. Inhibition is the desired outcome for this assay.
NIH Chemical Genomics Center [NCGC]
NIH Molecular Libraries Probe Centers Network [MLPCN]
Assay Submitter (PI): Rui Zhao, University of Colorado Denver
Eya2 enzyme and 3-O-methyl-fluorescein phosphate (OMFP) substrate working solutions were reconstituted in the buffer reagent consist of 50 mM HEPES pH 7.5, 50 mM NaCl, […], 0.05% BSA and 1 mM DTT. One and a half microliter of 0.2 uM Eya2 working solution was dispensed in a 1536 well Greiner plate (black, medium bind). Twenty-three nanoliter of test compounds and control compound EGTA was transferred to the assay plate using the Kalypsys robotic system equipped with a 1536 pin head. The plate was incubated at room temperature for 10 minutes. One and a half microliter of the 50 uM the OMFP substrate was then dispensed to the assay plate and incubated at room temperature for additional 10 min. The fluorescence signal was read using the PerkinElmer ViewLux plate reader using a 485 nm excitation and 525 nm emission filters. The data was normalized to the positive control for maximum inhibition and DMSO treated wells as negative control.
Potency means the concentration at half of the fitted maximal effect.

Compound	Potency	activity change, negative = inhibition
Cc1c(CCO)c(=O)n(-c2ccccc2)n1S(=O)(=O)c1c(Cl)cc(Cl)cc1Cl	active: 3.01 µM	
CCC(=O)Nc1ccc(-c2nnc(SCc3ccccc3)n2C)cc1		inactive: -7.17%
CCCc1ccc(C#N)c(SC2CC(=O)N(c3ccc(OC)cc3)C2=O)n1 (stereo not drawn)		inactive: -24.4%
O=C1C=C(N2CCOCC2)c2ccccc2C1=O	inconclusive: 15.1 µM [inhibitor, partial curve]	
COc1ccc2c(c1)c1nnc(SC(C)C)nc1n2C	inconclusive: 3.38 µM [inhibitor, full curve]	
CCn1c(C)cc(/C=C2/SC(=O)N(C(C)C(=O)OC)C2=O)c1C (stereo not drawn)		inactive: -22.8%
O=S(=O)(O)c1ccc2c(N=Nc3ccc(S(=O)(=O)O)c4ccccc34)c(O)c(S(=O)(=O)O)cc2c1	active: 7.57 µM	
CC(=O)Oc1ccc2nonc2c1OC(C)=O	inconclusive: 16.9 µM [inhibitor, partial curve]	
CC1(C)CC(Nc2ccc(Nc3ccccc3)cc2)CC(C)(C)N1	inconclusive: 19 µM [inhibitor, partial curve]	
COc1ccc(C(=O)OCC(=O)Nc2ccc(N3CCOCC3)cc2)cc1		inactive: -5.25%
Cc1ccc(C(O)c2ncc(-c3ccc4ccccc4c3)[nH]2)cc1F (stereo not drawn)	inconclusive: 21.3 µM [inhibitor, single point]	
Nc1ccc2c(c1Cl)C(=O)c1ccc(N)c(Cl)c1C2=O	active: 3.01 µM	
Cc1nc(COC(=O)c2c(C)nn(-c3ccccc3)c2C)cs1		inactive: -8.52%
Cc1nc(C)c(-c2csc(Nc3ccc(O)c(C(=O)O)c3)n2)s1	active: 19 µM	
COc1ccc(-c2cn(Cc3ccc4c(c3)C(=O)c3ccccc3C4=O)nn2)cc1		inactive: -4.41%
Cn1c(=O)c2cc(S(=O)(=O)Nc3cccc(F)c3)ccc2n(C)c1=O		inactive: -21.5%
COc1cccc(NC(=O)c2cc3ccccc3o/c2=N\O)c1	inconclusive: 16.9 µM [inhibitor, partial curve]	
CCC(=O)c1cn(CC(=O)Nc2c(C)cccc2C)c2ccccc12		inactive: -9.78%
CN(C)c1ccc(C(CNS(=O)(=O)c2ccc(F)c(F)c2)c2c[nH]c3ccccc23)cc1 (stereo not drawn)	inconclusive: 21.3 µM [inhibitor, single point]	
Cc1ccc(SCc2nc(N)nc(Nc3ccccc3C)n2)cc1C		inactive: -27.8%
O=C(Nc1nccs1)c1ccc(NC(=O)C2CC=CCC2C(=O)O)cc1 (stereo not drawn)	inconclusive: 15.1 µM [inhibitor, partial curve]	
Cc1ccc(C(=O)Nc2ccccc2C(=O)O)cc1S(=O)(=O)Nc1ccccc1	inconclusive: 16.9 µM [inhibitor, partial curve]	
Cc1ccc(Nc2nnc(SCC(=O)c3c(N)n(C4CC4)c(=O)[nH]c3=O)s2)cc1C		inactive: -26.1%
COc1cc(/C=C2\SC(=S)N(Nc3ccccc3)C2=O)ccc1O	inconclusive: 19 µM [inhibitor, partial curve]	
C[C@H](O)[C@@H]1CN2CCc3c([nH]c4ccc(-c5ccc6c(c5)OCO6)cc34)[C@@H]2C[C@@H]1N(C)C(=O)NC1CCCCC1	inconclusive: 15.1 µM [inhibitor, partial curve]	

Compound	Potency	activity change, negative = inhibition
COc1ccc(C(=O)Nc2nnc(-c3ccccc3)o2)cc1OC	active: 19 µM	
COc1ccc(NCc2cc3cc(OC)ccc3[nH]c2=O)cc1	inconclusive: 19 µM [inhibitor, partial curve]	
O=C(Oc1ccc(C(=S)N2CCOCC2)cc1)c1cccc(Cl)c1	active: 8.49 µM	
Cc1ccc(C(=O)N2CCN(c3ccc(NC(=S)NC(=O)c4cccs4)cc3)CC2)cc1	inconclusive: 6.75 µM [inhibitor, partial curve]	
Brc1ccc(CSc2ccc3nnc(-c4cccnc4)n3n2)cc1	inconclusive: 19 µM [inhibitor, single point]	
CCn1c2ccccc2c2cc(NC(=O)COC(=O)c3ccc(NC(=O)CC#N)cc3)ccc21		inactive: -9.27%
O=c1[nH]c(/C=C\c2cccc(Cl)c2)nc(O)c1[N+](=O)[O-]	inconclusive: 19 µM [inhibitor, partial curve]	
CCC(=O)NC(c1cccs1)c1cc(Cl)c2cccnc2c1O (stereo not drawn)	active: 1.51 µM	
CCCOc1ccc(C2C3=C(Nc4nc(N)[nH]c(=O)c42)c2ccccc2C3=O)cc1 (stereo not drawn)	active: 3.38 µM	
O=C(O)c1c2c(nc3ccccc13)/C(=C/c1ccc(O)cc1)CC2	inconclusive: 15.1 µM [inhibitor, partial curve]	
Fc1ccc(-c2ccc(CNCc3ccccn3)o2)cc1	active: 19 µM	
CSc1cccc(NC(=O)CCCn2c(=O)c3cccn3c3cccnc32)c1	inconclusive: 15.1 µM [inhibitor, partial curve]	
CC(=O)c1ccc(OC(=O)CCNC(=O)c2ccccc2)cc1	inconclusive: 19 µM [inhibitor, partial curve]	
Cc1cc(C)n2nc(C(=O)NC3CCCc4ccccc43)nc2n1 (stereo not drawn)		inactive: -9.93%
O=C(CCN1C(=O)/C(=C/c2ccc(F)cc2)SC1=S)Nc1cc([N+](=O)[O-])ccc1O	inconclusive: 16.9 µM [inhibitor, partial curve]	
CCOc1ccc(N(C)Cc2cc(=O)oc3ccc(OCC)cc23)cc1	inconclusive: 6.75 µM [inhibitor, partial curve]	
O=C(O)c1ccc(N/N=C/c2cc3cc4c(cc3nc2Cl)OCCO4)cc1	inconclusive: 23.9 µM [inhibitor, single point]	
O=C(Nc1ccc(Nc2ccccc2)cc1)c1ccc(Cl)cc1[N+](=O)[O-]		inactive: -22.8%
Cc1c(C(=O)Nc2ccc(Nc3ccccc3)cc2)cccc1[N+](=O)[O-]	inconclusive: 16.9 µM [inhibitor, partial curve]	
Cc1ccc(NC(=S)N2CCc3[nH]c4ccccc4c3C2)cc1		inactive: -30%
COc1cccc(OC)c1C(=O)OCC(=O)NCC1CCCCC1		inactive: -9.42%
N#CC1=C2N=C(N)c3ccccc3N2C2=C(C(=O)CCC2)C1c1cccc(Cl)c1 (stereo not drawn)	inconclusive: 16.9 µM [inhibitor, partial curve]	
CC(=O)c1cccc(-c2cnc3c(NC=O)cc(-c4ccc(N(C)C)cc4)cn23)c1	inconclusive: 16.9 µM [inhibitor, single point]	
O=C(NC(=S)Nc1ccccc1N1CCCCC1)c1ccco1	inconclusive: 19 µM [inhibitor, partial curve]	
CC1CCC(=NNc2ccc(C(F)(F)F)cc2[N+](=O)[O-])CC1 (stereo not drawn)	active: 7.57 µM	

Compound	Potency	activity change, negative = inhibition
Cc1cc2ccccc2n1CCNC(=O)c1cccs1	inconclusive: 21.3 µM [inhibitor, partial curve]	
Fc1cccc(Cc2c(-c3ccco3)nc3ccc(Br)cn23)c1	inconclusive: 21.3 µM [inhibitor, partial curve]	
COc1cc2c(cc1OC)-c1cc(Nc3ccc(C)cc3)nc(=O)n1CC2	active: 5.36 µM	
COc1ccc(OC)c(NC(=O)CSc2nc(-c3ccccc3)cc(=O)[nH]2)c1	inconclusive: 21.3 µM [inhibitor, partial curve]	
O=c1c2ccc(Cl)cc2nc2n1CC/C2=C\c1cccc(O)c1	inconclusive: 2.39 µM [inhibitor, full curve]	
CN(C)CCc1cc2c(c3c1ccc1ccccc13)OCO2	inconclusive: 19 µM [inhibitor, partial curve]	
COc1ccc(-c2csc(-c3ccc(C(=O)O)cc3)n2)cc1		inactive: -19.6%
CCC1CCCCN1c1nc(-c2cccc(OC)c2O)nc2ccccc12 (stereo not drawn)	inconclusive: 13.5 µM [inhibitor, partial curve]	
CCS(=O)(=O)N1CCC(C(=O)Oc2ccc(Cl)cc2)CC1	inconclusive: 21.3 µM [inhibitor, partial curve]	
Cc1cc(C(=O)O)ccc1-n1c(C)cc(C=C2C(=O)c3ccccc3C2=O)c1C		inactive: -8.67%
O=S(=O)(Nc1nnc(-c2ccccc2)s1)c1ccc(Cl)cc1	active: 15.1 µM	
COc1ccccc1N1CCN(C(=O)c2ccc(-c3nc4ccccc4s3)o2)CC1	inconclusive: 16.9 µM [inhibitor, partial curve]	
Cc1ccc(CSc2nnc(-c3ccccn3)n2N)cc1	inconclusive: 21.3 µM [inhibitor, single point]	
Nc1nc2ncc(CNc3ccc(C(=O)NC(CCC(=O)O)C(=O)O)cc3)nc2c(=O)[nH]1 (stereo not drawn)	inconclusive: 16.9 µM [inhibitor, partial curve]	
Cc1ccc(S(=O)(=O)N2CCOCC2)cc1NC(=O)CSc1nnc2cc(C)c3ccccc3n12	inconclusive: 10.7 µM [inhibitor, partial curve]	
Cc1cc(/C=N/NC(=O)c2ccccn2)c(C)n1-c1cccc([N+](=O)[O-])c1	inconclusive: 21.3 µM [inhibitor, partial curve]	
c1ccc2cc(CSCc3nc4ccccc4[nH]3)ccc2c1		inactive: -26.1%
COc1cc(/C=C2\SC(=S)N(CCC(=O)Nc3cccc(O)c3)C2=O)cc(OC)c1OC		inactive: -18.9%
Cc1c(NC(=O)c2ccco2)cccc1C(=O)NN1C(=O)c2ccccc2C1=O		inactive: -17.1%
Cc1nc2c(c(=O)c3ccccc3n2C)c(=O)n1-c1ccccc1	inconclusive: 19 µM [inhibitor, partial curve]	
CCOC(=O)C1=C(N)Oc2c(oc(CO)cc2=O)C1c1ccc(Cl)cc1 (stereo not drawn)		inactive: -29.1%
Cc1ccc(C(=O)Nc2cccc(O)c2)cc1S(=O)(=O)N1CCCCCC1	inconclusive: 19 µM [inhibitor, partial curve]	
CN(C)C(=O)/C(=C\c1ccc(-c2cccc([N+](=O)[O-])c2)o1)NC(=O)c1ccccc1	inconclusive: 15.1 µM [inhibitor, partial curve]	

Whole records, looked up by structure.
COc1ccccc1N1CCN(C(=O)c2ccc(-c3nc4ccccc4s3)o2)CC1 is listed with Potency: inconclusive: 16.9 µM [inhibitor, partial curve]
COc1ccc(-c2csc(-c3ccc(C(=O)O)cc3)n2)cc1 is listed with activity change, negative = inhibition: inactive: -19.6%
CCOC(=O)C1=C(N)Oc2c(oc(CO)cc2=O)C1c1ccc(Cl)cc1 (stereo not drawn) is listed with activity change, negative = inhibition: inactive: -29.1%
Cc1ccc(C(=O)Nc2cccc(O)c2)cc1S(=O)(=O)N1CCCCCC1 is listed with Potency: inconclusive: 19 µM [inhibitor, partial curve]
